This passage reports binding results from paper PMC9357983.

No constants are given. Whether binding was seen depends on the method and setting.

The target of this assay is AtCDC20.1 WD40 (Arabidopsis thaliana CDC20.1 C-terminal construct with the WD40 domain and IR motif) (Arabidopsis thaliana) (UniProt Q9SZA4). Description: SEC + SEC-MALS; Superdex 75 HR10/30, 20°C, 25 mM Tris pH 8.0, 150 mM NaCl, 5 mM β-mercaptoethanol, 0.5 ml/min; 100 μL of 1 mg/ml protein injected; both purified. In general terms: In gel filtration, larger molecules generally elute earlier.

B1: AtCDC20.1 WD40 (Arabidopsis thaliana CDC20.1 C-terminal construct with the WD40 domain and IR motif) (domain or fragment, UniProt Q9SZA4 120-457)
chain: PRRYIPQTSERTLDAPDIVDDFYLNLLDWGSANVLAIALDHTVYLWDASTGSTSELVTIDEEKGPVTSINWAPDGRHVAVGLNNSEVQLWDSASNRQLRTLKGGHQSRVGSLAWNNHILTTGGMDGLIINNDVRIRSPIVETYRGHTQEVCGLKWSGSGQQLASGGNDNVVHIWDRSVASSNSTTQWLHRLEEHTSAVKALAWCPFQANLLATGGGGGDRTIKFWNTHTGACLNSVDTGSQVCSLLWSKNERELLSSHGFTQNQLTLWKYPSMVKMAELTGHTSRVLYMAQSPDGCTVASAAGDETLRFWNVFGVPETAKKAAPKAVSEPFSHVNRIR
On to B1, for which the binding result is “no binding (tested: 1 mg/ml injected)”.
